# PubChem BioAssay AID504793 – Drosophila RNAi Screening Center | 2011
# Test: 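Genes required for cells to halt at G2/M after double-strand DNA breaks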 (primary screen)
# System: Drosophila S2R+ cells
# Knock-down reagent: long dsRNA against Drosophila genes, about 0.25 µg dsRNA per well
# Duration: 4 days of dsRNA, then 4 hours of drug before read-out
# Conditions: doxorubicin 0.5 µM for 4 hours to cause double-strand breaks, in cells also given a low, harmless dose of dsRNA against nbs to sensitise the assay
# Measured: 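Mitotic index as the number of phospho-histone H3-positive cells in each well following doxorubicin, given as raw counts without normalisation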
# Direction: mitotic cells: higher = more cells in mitosis, weaker G2 arrest
# Hit rule: 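a call needs confirmation in secondary tests, with other dsRNAs and a check of mitotic timing without damage, not just a high primary count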
# Calls: active = confirmed in follow-up tests; inactive = not confirmed
# The screen tested about 23,000 reagents; below is a random part of those that have a named target and a result. Over the whole deposit, 62 (0.27%) were called active. 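Calls come from follow-up tests whose scores are not deposited, so confirmed genes may have low counts here; counts are not normalised per plate.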 Raw values vary from plate to plate and are shown uncorrected.
predicted target,DRSC id,"mitotic cells, replicate 1",outcome
Or47b (GeneID 36212),DRSC07492,12,inactive
CG33462 (GeneID 2768841),DRSC22902,16,inactive
CG9483 (GeneID 34209),DRSC03226,2,inactive
CG9483 (GeneID 34209),DRSC29929,24,inactive
Dera (GeneID 36358),DRSC07207,6,inactive
Dera (GeneID 36358),DRSC21336,8,inactive
Dera (GeneID 36358),DRSC26996,5,inactive
neb (GeneID 35293),DRSC03577,4,inactive
neb (GeneID 35293),DRSC28464,5,inactive
Ugt304A1 (GeneID 53501),DRSC15127,3,inactive
Ugt304A1 (GeneID 53501),DRSC26693,8,inactive
CG12377 (retired record) (GeneID 40473),DRSC11671,5,inactive
CG12377 (retired record) (GeneID 40473),DRSC11672,3,inactive
Vps50 (GeneID 37021),DRSC06910,9,inactive
Gld (GeneID 40875),DRSC12595,3,inactive
Spn43Ad (GeneID 35639),DRSC06770,7,inactive
sc (GeneID 30982),DRSC18830,14,inactive
sc (GeneID 30982),DRSC29307,10,inactive
Noc1 (GeneID 39240),DRSC10921,3,inactive
cer (GeneID 37229),DRSC05992,6,inactive
CG4364 (GeneID 34287),DRSC02742,5,inactive
CG4364 (GeneID 34287),DRSC29531,1,inactive
CG14817 (GeneID 31145),DRSC18547,9,inactive
HP1e (GeneID 41108),DRSC16379,3,inactive
Tes (GeneID 36965),DRSC06996,7,inactive
CG14079 (GeneID 40086),DRSC10083,6,inactive
Polr3H (GeneID 39310),DRSC10817,5,inactive
Cpsf6 (GeneID 38937),DRSC10781,6,inactive
Alg9 (GeneID 43031),DRSC14407,10,inactive
Oseg2 (GeneID 38282),DRSC08343,5,inactive
mRpS11 (GeneID 42061),DRSC15732,4,inactive
Oseg1 (GeneID 38957),DRSC10776,4,inactive
RhoGEF64C (GeneID 38578),DRSC08318,5,inactive
RhoGEF64C (GeneID 38578),DRSC08319,4,inactive
RhoGEF64C (GeneID 38578),DRSC25939,8,inactive
CG33454 (GeneID 2768850),DRSC22914,12,inactive
CG33454 (GeneID 2768850),DRSC26767,3,inactive
Smyd3 (GeneID 44554),DRSC17744,13,inactive
Smyd3 (GeneID 44554),DRSC26723,8,inactive
rad50 (GeneID 37564),DRSC04523,8,inactive
eIF3d1 (GeneID 42789),DRSC16938,7,inactive
RSG7 (GeneID 32674),DRSC20274,16,inactive
RSG7 (GeneID 32674),DRSC22852,5,inactive
CG32488 (GeneID 326220),DRSC08549,3,inactive
CG32488 (GeneID 326220),DRSC21537,7,inactive
Hipk (GeneID 38070),DRSC07885,10,inactive
Hipk (GeneID 38070),DRSC23155,17,inactive
Lar (GeneID 35259),DRSC01707,8,inactive
Lar (GeneID 35259),DRSC03361,2,inactive
sced (GeneID 35564),DRSC04990,2,inactive
Mtl (GeneID 43319),DRSC16751,8,inactive
gt (GeneID 31227),DRSC23119,,inactive
gt (GeneID 31227),DRSC28482,4,inactive
CG10338 (GeneID 35124),DRSC02039,8,inactive
tapas (GeneID 37304),DRSC05950,5,inactive
Sik3 (GeneID 37152),DRSC06505,3,inactive
Sik3 (GeneID 37152),DRSC06771,3,inactive
Sik3 (GeneID 37152),DRSC29149,4,inactive
Sik3 (GeneID 37152),DRSC29722,11,inactive
chp (GeneID 43690),DRSC16925,3,inactive
chp (GeneID 43690),DRSC26106,2,inactive
Brf (GeneID 42087),DRSC14166,2,inactive
Brf (GeneID 42087),DRSC14167,4,inactive
Gr10a (GeneID 117501),DRSC18897,4,inactive
Gr10a (GeneID 117501),DRSC22792,13,inactive
Gr10a (GeneID 117501),DRSC26071,6,inactive
Cyp4e2 (GeneID 35822),DRSC07371,9,inactive
cyc (GeneID 40162),DRSC11337,16,inactive
Rsf1 (GeneID 34370),DRSC03423,4,inactive
Rsf1 (GeneID 34370),DRSC21953,11,inactive
Rsf1 (GeneID 34370),DRSC27444,3,inactive
Hydr2 (GeneID 33532),DRSC00607,7,inactive
CG15822 (GeneID 38273),DRSC08482,5,inactive
CG15822 (GeneID 38273),DRSC08483,10,inactive
CG13538 (GeneID 37667),DRSC04180,4,inactive
dlt (GeneID 46719),DRSC08705,10,inactive
dlt (GeneID 46719),DRSC26168,4,inactive
CG13994 (GeneID 33853),DRSC02326,1,inactive
CG9119 (GeneID 38124),DRSC08620,3,inactive
CG9119 (GeneID 38124),DRSC25290,8,inactive
CG14006 (GeneID 33802),DRSC02338,2,inactive
CG3600 (retired record) (GeneID 31161),DRSC18599,13,inactive
CG3600 (retired record) (GeneID 31161),DRSC25130,6,inactive
Golgin97 (GeneID 36492),DRSC06895,8,inactive
CG12347 (GeneID 42152),DRSC14502,6,inactive
CG34393 (GeneID 33534),DRSC00419,4,inactive
CG34393 (GeneID 33534),DRSC00710,3,inactive
CG34393 (GeneID 33534),DRSC24621,5,inactive
CG34393 (GeneID 33534),DRSC26763,7,inactive
CG2121 (GeneID 35814),DRSC06819,8,inactive
CG2121 (GeneID 35814),DRSC06820,6,inactive
Rm62 (GeneID 40739),DRSC12365,3,inactive
Rm62 (GeneID 40739),DRSC25109,7,inactive
CG31259 (GeneID 41010),DRSC14366,5,inactive
Chc (GeneID 32537),DRSC20229,10,inactive
fog (GeneID 33148),DRSC20646,6,inactive
AIMP1 (GeneID 35892),DRSC07118,3,inactive
AIMP1 (GeneID 35892),DRSC25922,4,inactive
CG3078 (GeneID 31211),DRSC18531,5,inactive
CG3078 (GeneID 31211),DRSC23471,4,inactive
CR33318 (GeneID 3771976),DRSC22949,6,inactive
CR14117 (GeneID 39473),DRSC10121,5,inactive
CR14117 (GeneID 39473),DRSC25950,7,inactive
CG3544 (GeneID 33252),DRSC00613,9,inactive
Obp99a (GeneID 43488),DRSC15303,9,inactive
CG7458 (GeneID 40441),DRSC11829,11,inactive
CG7458 (GeneID 40441),DRSC21340,15,inactive
Uggt (GeneID 40055),DRSC11315,3,inactive
CheA87a (GeneID 41642),DRSC14839,10,inactive
Kdm2 (GeneID 41090),DRSC14286,4,inactive

In a second layout: results already given.
{"predicted target":"Smyd3 (GeneID 44554)","DRSC id":"DRSC17744","mitotic cells, replicate 1":13,"outcome":"inactive"}
{"predicted target":"Smyd3 (GeneID 44554)","DRSC id":"DRSC26723","mitotic cells, replicate 1":8,"outcome":"inactive"}
{"predicted target":"rad50 (GeneID 37564)","DRSC id":"DRSC04523","mitotic cells, replicate 1":8,"outcome":"inactive"}
{"predicted target":"eIF3d1 (GeneID 42789)","DRSC id":"DRSC16938","mitotic cells, replicate 1":7,"outcome":"inactive"}
{"predicted target":"RSG7 (GeneID 32674)","DRSC id":"DRSC20274","mitotic cells, replicate 1":16,"outcome":"inactive"}
